“And” between values parts separate entries of the source, which are not always exact repeats. Identical values can stand only once. Some of the results follow. Single values are uncertain here, since repeats match poorly.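 HEK293T cells were given each compound shortly before transfection with a reporter in which red mCherry is followed by the SARS-CoV-2 frameshift element and then GFP in the −1 frame, so GFP appears only after frameshifting.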
Legend:
[1] = system: SARS-CoV-2 -1 PRF reporter mCherry-FSE-GFP(-1); test: mCherry (red) intensity as percent of control; higher = higher upstream reporter expression; conditions: 10 µM; 24 h; HEK293T
[2] = system: SARS-CoV-2 -1 PRF reporter mCherry-FSE-GFP(-1); test: percent effect, decrease of GFP/mCherry ratio (-1 PRF reporter) relative to controls; higher = stronger frameshift inhibition; conditions: 10 µM; 24 h; HEK293T

Work on CCC1NC(=O)c2cc(S(N)(=O)=O)c(Cl)cc2N1 (centres undefined) [quinethazone] yielded a mCherry [1] of 87.7% and a percent effect [2] of 0.533%.

In the case of CC[C@H]1OC(=O)[C@H](C)[C@@H](O[C@H]2C[C@@](C)(OC)[C@@H](O)[C@H](C)O2)[C@H](C)[C@@H](O[C@@H]2O[C@H](C)C[C@H](N(C)C)[C@H]2O)[C@](C)(O)C[C@@H](C)C(=O)[C@H](C)[C@@H](O)[C@]1(C)O [erythromycin], the mCherry [1] is reported as 84.7% and 92.1% and the percent effect [2] is reported as -2.13% and -1.19%.

For C[C@H](N)C(=O)N[C@@H](C)C(=O)N[C@H]1[C@@H]2CN(c3nc4c(cc3F)c(=O)c(C(=O)O)cn4-c3ccc(F)cc3F)C[C@@H]21 [alatrofloxacin], the mCherry [1] was 105% and the percent effect [2] was 1.81%.

CCOc1ccc(C(=O)OCCN(CC)CC)cc1 [parethoxycaine] was tested, and the mCherry [1] was 92% and the percent effect [2] was -3.5%.

CN(C)C(=O)N[C@H]1CC[C@H](CCN2CCN(c3cccc(Cl)c3Cl)CC2)CC1 [Cariprazine] showed a mCherry [1] of 105% and a percent effect [2] of 0.888%.

O=C(O)Cc1ccc(-c2ccccc2)cc1 [felbinac] showed a mCherry [1] of 98.3% and a percent effect [2] of -2.34%.

CC(C)(CO)C(O)C(=O)NCCCO (centres undefined) [panthenol] showed a mCherry [1] of 88.2% and a percent effect [2] of -1.89%.

With O=C(O)c1ccc(NC(=O)[C@H](Cc2ccc(O)cc2)NC(=O)c2ccccc2)cc1 [Chymex] the mCherry [1] was 121% and the percent effect [2] was -2.01%.

Molecule O=C(OC1C[C@@H]2CC3C[C@H](C1)N2CC3=O)c1c[nH]c2ccccc12 (some centres undefined) [Dolasteron] has a mCherry [1] of 89.8% and a percent effect [2] of -9.73%.

For CCOC(=O)C1=C[C@@H](OC(CC)CC)[C@H](NC(C)=O)[C@@H](N)C1, the mCherry [1] was 111% and the percent effect [2] was -1.95%.

Nc1nc2[nH]cnc2c(=S)[nH]1 showed a mCherry [1] of 24.1% and a percent effect [2] of -17.2%.

In the case of C=C[C@H]1CN2CC[C@H]1C[C@H]2[C@H](O)c1ccnc2ccc(OC)cc12, the mCherry [1] is reported as 112% and 106% and the percent effect [2] is reported as 2.51% and -10.9%.

Molecule Cc1c(CN2CCOC(c3ccccc3)C2C)c(=O)n(-c2ccccc2)n1C (centres undefined) [morazone] has a mCherry [1] of 62.8% and a percent effect [2] of -1.81%.

With CCCCC(=O)O[C@H]1CC[C@H]2[C@@H]3CCc4cc(O)ccc4[C@H]3CC[C@]12C the mCherry [1] was 168% and the percent effect [2] was 20.9%.

In the case of CCCN[C@H]1CCc2nc(N)sc2C1 [Pramipexole], the mCherry [1] is reported as 78.5% and the percent effect [2] is reported as -5.2%.

For CC1=C(/C=C/C(C)=C/C=C/C(C)=C\C(=O)O)C(C)(C)CCC1 [isotretinoin], the mCherry [1] was 105% and the percent effect [2] was -5.69%.

In the case of CN(C)/N=N/c1[nH]cnc1C(N)=O, the mCherry [1] is reported as 87.4% and the percent effect [2] is reported as -1.48%.

Molecule Cc1cc2nc3c(=O)[nH]c(=O)nc-3n(C[C@H](O)[C@H](O)[C@H](O)CO)c2cc1C has a mCherry [1] of 91.6% and a percent effect [2] of -3.13%.

Molecule N/C(=N\C(=O)c1nc(Cl)c(N)nc1N)NCc1ccccc1 [Benzamil] has a mCherry [1] of 67.8% and a percent effect [2] of -12.8%.

With O=C1C2CC3CC1CC(O)(C3)C2 [idramantone] the mCherry [1] was 101% and the percent effect [2] was 0.652%.

Cc1onc(-c2c(F)cccc2Cl)c1C(=O)N[C@@H]1C(=O)N2[C@@H]1SC(C)(C)[C@@H]2C(=O)O [Floxacillin] showed a mCherry [1] of 108% and a percent effect [2] of -3.53%.

CC[C@H](C)[C@@H]([C@@H](CC(=O)N1CCC[C@H]1[C@H](OC)[C@@H](C)C(=O)NCCc1ccccc1)OC)N(C)C(=O)[C@@H](NC(=O)[C@H](C(C)C)N(C)C)C(C)C [soblidotin] was tested, and the mCherry [1] was 83.7% and the percent effect [2] was -3.19%.

In the case of CN(C)CCCOc1nn(Cc2ccccc2)c2ccccc12 [benzydamine], the mCherry [1] is reported as 106% and 95.7% and the percent effect [2] is reported as -2.5% and -9.86%.

For COC(=O)Nc1nc2cc([S+]([O-])c3ccccc3)ccc2[nH]1 (centres undefined) [Oxfendazole], the mCherry [1] was 82.5% and the percent effect [2] was -2.93%.

Molecule N=C(NCCCCCCNC(=N)NC(=N)Nc1ccc(Cl)cc1)NC(=N)Nc1ccc(Cl)cc1 [Chlorhexidine] has a mCherry [1] of 99.5% and a percent effect [2] of -13.3%.

Work on CC(C)(Oc1ccc(Cl)cc1)C(=O)OCc1cccnc1 [nicofibrate] yielded a mCherry [1] of 103% and a percent effect [2] of -2.28%.

For Cn1cnc2c1c(=O)[nH]c(=O)n2C, the mCherry [1] was 87.6% and the percent effect [2] was -2.48%.

Work on Cn1cnc([N+](=O)[O-])c1Sc1nc(N)nc2[nH]cnc12 [tiamiprine] yielded a mCherry [1] of 82.5% and a percent effect [2] of 14.4%.

O=S(=O)(O)CCCS(=O)(=O)O showed a mCherry [1] of 105% and a percent effect [2] of -0.68%.

In the case of C[C@@H]1O[C@@H](OC[C@H]2O[C@@H](Oc3c(-c4ccc(O)c(O)c4)oc4cc(O)cc(O)c4c3=O)[C@H](O)[C@@H](O)[C@@H]2O)[C@H](O)[C@H](O)[C@H]1O [rutoside], the mCherry [1] is reported as 118% and the percent effect [2] is reported as -3.86%.

With C=C[C@H]1CN2CC[C@H]1C[C@@H]2[C@@H](O)c1ccnc2ccc(OC)cc12 the mCherry [1] was 120% and 97.3% and the percent effect [2] was 3.87% and -7.29%.

With CN(C(=O)CCCOc1ccc2[nH]c(=O)ccc2c1)C1CCCCC1 [cilostamide] the mCherry [1] was 103% and the percent effect [2] was 3.25%.

From the supplement of paper PMC8256030
